Counter-ions that a name gives are not always drawn. ± gives the standard deviation of the averaged measurements. The list shows a part of the results.
What follows are molecules tested on APPdp1-6 iPSC-derived neurons (assay: pThr231Tau/total Tau ratio Z-score vs DMSO vehicle wells; higher = more pThr231Tau relative to total Tau). Details: 5 µM; treatment time 5 days.

Row | SMILES | pThr231Tau/total Tau ratio Z-score
1 | O=C(O)c1cc(O)c(O)c(O)c1 [Gallic acid] | 0.038 ± 0.29
2 | Nc1ccc(N=Nc2ccccc2)c(N)n1 [Prestw-752] | 0.288 ± 1
3 | CCN(CC)C(=O)N1CCN(C)CC1 [Prestw-284] | 0.177 ± 1.2
4 | CC[C@]1(O)C[C@@H]2CN(CCc3c([nH]c4ccccc34)[C@@](C(=O)OC)(c3cc4c(cc3OC)N(C)[C@H]3[C@@](O)(C(=O)OC)[C@H](OC(C)=O)[C@]5(CC)C=CCN6CC[C@]43[C@@H]65)C2)C1 | -4.89 ± 0.97
5 | CC(=O)[C@H]1CC[C@H]2[C@@H]3CC=C4C[C@@H](OC(=O)CCC(=O)O)CC[C@]4(C)[C@H]3CC[C@]12C [PREGNENOLONE SUCCINATE, glucocortcoid, antiinflammatory] | 0.738 ± 0.9
6 | Cc1c(C)c2c(c(C)c1O)CC[C@@](C)(CCC[C@H](C)CCC[C@H](C)CCCC(C)C)O2 | 0.511 ± 0.51
7 | CCCCC(CC)COC(=O)c1ccccc1O (stereo unspecified) [OCTISALATE, sunscreen] | 0.353 ± 0.45
8 | CCN(CCCc1ccccc1)CCCc1ccccc1 [Prestw-174] | 0.995 ± 1.4
9 | CCSc1ccc2c(c1)N(CCCN1CCN(C)CC1)c1ccccc1S2 [Prestw-1068] | 0.413 ± 0.12
10 | C[N+](C)(C)CCOP(=O)([O-])OP(=O)(O)OC[C@H]1O[C@@H](n2ccc(N)nc2=O)[C@H](O)[C@@H]1O | -0.537 ± 0.77
11 | CN(C)CCC(c1ccccc1)c1ccccn1 (stereo unspecified) [Prestw-59] | 0.55 ± 1.8
12 | CC(C)CCC[C@@H](C)[C@H]1CC[C@H]2[C@@H]3CC=C4C[C@@H](O)CC[C@]4(C)[C@H]3CC[C@]12C [CHOLESTEROL, emulsifying agent] | 0.0975 ± 1.2
13 | Cc1ccc(O)c([C@H](CCN(C(C)C)C(C)C)c2ccccc2)c1 [TOLTERODINE TARTRATE, muscarinic receptor antagonist] | -0.71 ± 0.032
14 | CCCCOc1ccc(CC(=O)NO)cc1 [Prestw-243] | -0.131 ± 0.33
15 | CC(=O)OC(C)C[N+](C)(C)C (stereo unspecified) [Prestw-759] | 0.559 ± 1.2
16 | C=CCc1ccccc1OCC(O)CNC(C)C (stereo unspecified) [Prestw-250] | -0.135 ± 0.48
17 | Oc1c(Cl)cc(Cl)cc1Sc1cc(Cl)cc(Cl)c1O [BITHIONOL    Therap cat:  anthelmintic; antiseptic] | 0.235 ± 1.1
18 | C[C@H]1c2cccc(O)c2C(O)=C2C(=O)[C@]3(O)C(O)=C(C(N)=O)C(=O)[C@@H](N(C)C)[C@@H]3[C@@H](O)[C@@H]21 [Prestw-1399] | -0.232 ± 0.35

Fetched by compound from the list above:
Row | SMILES | pThr231Tau/total Tau ratio Z-score
16 | C=CCc1ccccc1OCC(O)CNC(C)C (stereo unspecified) [Prestw-250] | -0.135 ± 0.48
17 | Oc1c(Cl)cc(Cl)cc1Sc1cc(Cl)cc(Cl)c1O [BITHIONOL    Therap cat:  anthelmintic; antiseptic] | 0.235 ± 1.1
15 | CC(=O)OC(C)C[N+](C)(C)C (stereo unspecified) [Prestw-759] | 0.559 ± 1.2

(more compounds)

Row | SMILES | pThr231Tau/total Tau ratio Z-score
19 | O=C(O)c1cc(=O)c2c(OCC(O)COc3cccc4oc(C(=O)O)cc(=O)c34)cccc2o1 [Prestw-812] | 0.114 ± 1.1
20 | CC[C@]12CCCN3CCc4c(n(c5ccccc45)[C@@](O)(C(=O)OC)C1)[C@@H]32 [Prestw-271] | -1.07 ± 1.1
21 | Nc1ccc(S(N)(=O)=O)cc1 [Prestw-729] | -0.506 ± 0.37
22 | CC(CCc1ccc(O)cc1)NCCc1ccc(O)c(O)c1 (stereo unspecified) [Prestw-352] | -0.0216 ± 0.28
23 | C[C@@H](O)[C@H]1C(=O)N2C(C(=O)O)=C(SCCN=CN)C[C@H]12 [Prestw-519] | -0.665 ± 0.018
24 | CC1=C(C(=O)O)N2C(=O)[C@@H](NC(=O)[C@H](N)c3ccc(O)cc3)[C@H]2SC1 [Prestw-434] | 0.348 ± 1
25 | C=CCN1CCCC1CNC(=O)c1cc2nn[nH]c2cc1OC (stereo unspecified) [Prestw-451] | -0.739 ± 0.31
26 | CC(C)(Oc1ccc(C2CC2(Cl)Cl)cc1)C(=O)O (stereo unspecified) [Prestw-1076] | -0.353 ± 0.55
27 | CCCc1nc(C)c2c(=O)[nH]c(-c3cc(S(=O)(=O)N4CCN(CC)CC4)ccc3OCC)nn12 [Prestw-1356] | 0.306 ± 0.2
28 | C=C(NC(=O)C(=C)NC(=O)c1csc(C2=N[C@@H]3c4csc(n4)[C@H]4NC(=O)c5csc(n5)[C@H]([C@](C)(O)[C@@H](C)O)NC(=O)[C@H]5CSC(=N5)/C(=C/C)NC(=O)[C@H]([C@@H](C)O)NC(=O)c5csc(n5)[C@]3(CC2)NC(=O)[C@H](C)NC(=O)C(=C)NC(=O)[C@H](C)NC(=O)[C@H]([C@@H](C)CC)N[C@@H]2C=Cc3c([C@H](C)O)cc(nc3[C@H]2O)C(=O)O[C@@H]4C)n1)C(N)=O [Prestw-522] | -3.89 ± 1.2
29 | CCC(C)(CN(C)C)OC(=O)c1ccccc1 (stereo unspecified) [Prestw-49] | -1.109 ± 0.00044
30 | Nc1nccs1 [AMINOTHIAZOLE    Therap cat: antithyroid agent] | 0.649 ± 1
31 | NC(=O)c1cccnc1 [Prestw-1449] | -0.784 ± 2
32 | Cn1c(=O)c2c(ncn2CC(O)CO)n(C)c1=O (stereo unspecified) [Prestw-33] | 0.426 ± 0.1
33 | CCCCCCCCCCCCCCCC[N+](C)(C)C [CETRIMONIUM BROMIDE    Therap cat: antiseptic] | -3.3 ± 1.3
34 | S=c1nc[nH]c2nc[nH]c12 [Prestw-1469] | 0.132 ± 0.74
35 | CNC1(C)C2CCC(C2)C1(C)C (stereo unspecified) [Prestw-1111] | 6.81 ± 9.1
36 | NC(=O)C1(N2CCCCC2)CCN(CCCC(=O)c2ccc(F)cc2)CC1 [PIPAMPERONE, antipsychotic] | 1.34 ± 1.5

— the supplement of paper PMC6414424
